## Percent effect of library compounds

The chains behind the UniProt entries cited, without tags or fusion partners. Residues count along the entry.
UniProt I6X8D2, whole entry: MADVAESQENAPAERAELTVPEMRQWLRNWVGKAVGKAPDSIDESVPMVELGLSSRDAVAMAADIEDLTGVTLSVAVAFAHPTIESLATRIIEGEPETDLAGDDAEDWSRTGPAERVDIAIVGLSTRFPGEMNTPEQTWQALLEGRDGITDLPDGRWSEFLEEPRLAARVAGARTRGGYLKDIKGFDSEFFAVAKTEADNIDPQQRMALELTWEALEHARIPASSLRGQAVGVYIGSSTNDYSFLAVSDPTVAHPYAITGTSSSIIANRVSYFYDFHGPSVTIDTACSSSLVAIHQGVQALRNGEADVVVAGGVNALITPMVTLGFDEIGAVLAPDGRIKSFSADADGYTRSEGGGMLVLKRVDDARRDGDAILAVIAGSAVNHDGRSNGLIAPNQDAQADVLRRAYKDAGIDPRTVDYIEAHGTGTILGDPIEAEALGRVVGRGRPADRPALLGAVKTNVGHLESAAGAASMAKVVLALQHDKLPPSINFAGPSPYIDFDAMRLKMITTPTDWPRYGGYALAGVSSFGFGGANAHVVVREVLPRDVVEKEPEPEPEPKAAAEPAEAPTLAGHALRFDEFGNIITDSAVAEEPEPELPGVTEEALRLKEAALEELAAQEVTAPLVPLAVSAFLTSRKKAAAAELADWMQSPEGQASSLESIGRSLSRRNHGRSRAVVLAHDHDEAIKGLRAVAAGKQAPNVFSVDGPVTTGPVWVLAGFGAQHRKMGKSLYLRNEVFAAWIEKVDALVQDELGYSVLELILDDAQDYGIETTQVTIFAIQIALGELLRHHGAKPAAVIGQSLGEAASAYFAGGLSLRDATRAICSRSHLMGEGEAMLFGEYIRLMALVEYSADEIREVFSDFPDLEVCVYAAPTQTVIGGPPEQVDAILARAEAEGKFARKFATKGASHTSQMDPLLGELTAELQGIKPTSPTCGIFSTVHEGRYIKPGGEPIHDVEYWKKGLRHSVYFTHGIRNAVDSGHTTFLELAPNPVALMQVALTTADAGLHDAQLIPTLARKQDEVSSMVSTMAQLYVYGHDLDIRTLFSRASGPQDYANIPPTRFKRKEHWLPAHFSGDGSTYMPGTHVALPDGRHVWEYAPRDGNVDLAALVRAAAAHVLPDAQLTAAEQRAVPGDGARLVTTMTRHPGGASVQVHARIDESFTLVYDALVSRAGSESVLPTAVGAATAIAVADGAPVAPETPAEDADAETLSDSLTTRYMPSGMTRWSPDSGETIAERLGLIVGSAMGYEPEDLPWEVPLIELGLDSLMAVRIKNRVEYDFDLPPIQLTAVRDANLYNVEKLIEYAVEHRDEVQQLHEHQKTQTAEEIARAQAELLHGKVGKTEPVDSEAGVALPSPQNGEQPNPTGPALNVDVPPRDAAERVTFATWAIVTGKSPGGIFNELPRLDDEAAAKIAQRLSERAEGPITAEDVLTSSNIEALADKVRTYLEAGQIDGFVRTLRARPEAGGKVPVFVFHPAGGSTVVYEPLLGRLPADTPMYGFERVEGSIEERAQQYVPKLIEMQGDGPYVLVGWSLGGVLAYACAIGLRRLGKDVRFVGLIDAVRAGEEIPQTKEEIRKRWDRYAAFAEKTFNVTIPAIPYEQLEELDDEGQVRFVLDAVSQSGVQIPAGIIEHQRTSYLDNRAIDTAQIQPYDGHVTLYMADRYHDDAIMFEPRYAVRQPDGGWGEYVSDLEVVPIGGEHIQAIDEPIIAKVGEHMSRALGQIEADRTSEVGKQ
UniProt Q8IDJ8, 1-583: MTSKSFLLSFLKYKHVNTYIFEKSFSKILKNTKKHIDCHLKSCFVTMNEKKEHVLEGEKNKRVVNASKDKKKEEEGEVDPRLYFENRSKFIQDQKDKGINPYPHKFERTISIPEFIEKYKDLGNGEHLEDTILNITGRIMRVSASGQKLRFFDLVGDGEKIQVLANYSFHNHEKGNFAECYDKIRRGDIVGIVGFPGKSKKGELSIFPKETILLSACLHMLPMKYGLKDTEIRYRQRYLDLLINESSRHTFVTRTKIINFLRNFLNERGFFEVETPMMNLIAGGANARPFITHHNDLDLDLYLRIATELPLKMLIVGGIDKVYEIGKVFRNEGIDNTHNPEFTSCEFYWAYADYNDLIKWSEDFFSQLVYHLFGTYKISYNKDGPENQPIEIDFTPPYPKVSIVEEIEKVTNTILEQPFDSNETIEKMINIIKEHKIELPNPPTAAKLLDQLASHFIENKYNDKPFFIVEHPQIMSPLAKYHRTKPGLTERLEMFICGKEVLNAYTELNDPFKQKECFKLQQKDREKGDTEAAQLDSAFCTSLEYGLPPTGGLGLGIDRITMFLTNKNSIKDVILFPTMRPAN
UniProt P9WNZ1, whole entry: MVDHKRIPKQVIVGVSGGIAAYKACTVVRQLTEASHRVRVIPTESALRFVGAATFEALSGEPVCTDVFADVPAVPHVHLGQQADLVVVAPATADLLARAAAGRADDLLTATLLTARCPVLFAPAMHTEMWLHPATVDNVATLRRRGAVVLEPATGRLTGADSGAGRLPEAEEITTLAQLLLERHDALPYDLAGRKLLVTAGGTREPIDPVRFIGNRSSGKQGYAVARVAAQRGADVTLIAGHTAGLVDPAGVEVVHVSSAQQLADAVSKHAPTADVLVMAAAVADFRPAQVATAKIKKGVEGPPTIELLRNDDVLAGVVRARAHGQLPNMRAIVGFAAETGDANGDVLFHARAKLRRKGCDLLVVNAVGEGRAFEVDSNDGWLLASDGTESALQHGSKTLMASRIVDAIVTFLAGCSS

A: 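Assay of Toxoplasma gondii numbers, read through their beta-galactosidase reporter with a colour substrate. Concentration: 10 µM. The record gives no direction; the compounds picked for IC50 retests had high values, so higher reads as fewer parasites. Size under these conditions: about 67,000 compounds, about 260 of them at 50% or above in at least one test.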
B: 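Enzyme assay of the thioesterase domain of polyketide synthase 13; the read-out is not stated. Target: Polyketide synthase Pks13, Mycobacterium tuberculosis (UniProt I6X8D2). Concentration: 30 µM. The record gives no direction; the compounds picked for IC50 retests had high values, so higher reads as stronger inhibition. Size under these conditions: about 67,000 compounds, about 300 of them at 50% or above in at least one test.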
C: 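Lysine-tRNA ligase, Plasmodium falciparum 3D7 (UniProt Q8IDJ8). Enzyme assay of the cytosolic lysyl-tRNA synthetase in 384-well plates, read by luminescence. Tested at 30 µM. Direction is inferred from only a few compounds that gave an IC50; most scored high, so higher reads as stronger inhibition. About 69,000 compounds were tested under these conditions; 0.071% (about 49) showed 50% or more at least once.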
D: 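Enzyme assay of CoaBC with a phosphate dye (Biomol Green) read at 650 nm. Target: Coenzyme A biosynthesis protein CoaBC, Mycobacterium tuberculosis (UniProt P9WNZ1). Concentration: 30 µM. Higher reads as stronger inhibition, judged from the few compounds that gave an IC50. Most strong results did not repeat in a second test. Of about 67,000 compounds tested this way, about 40 (0.06%) reached 50% or more in at least one test.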

Each number is a percent effect as filed.
How 0% and 100% were set is not recorded. Most values in the screen are low, and negative values occur.
The compounds are a random part of those screened.
A dash means the value is not listed here; it may have been measured.

SMILES,A,B,C,D
COCc1nc(NCC2CCS(=O)(=O)C2)c2cnn(C)c2n1 (stereo unspecified),-21.02%,-13.07%,1.989%,10.63%
COCC(C)NCc1ccc2[nH]c(C)c(C)c2c1 (stereo unspecified),-0.5823%,3.288%,0%,5.147%
Cc1ccc2c(n1)N(Cc1cccnc1)CCN(Cc1cnn(C)c1)C2,-7.967%,4.117%,3.836%,0.3636%
Fc1cnc(N2CCOCC3(CCCN(c4cnccn4)C3)C2)nc1 (stereo unspecified),0.6999%,-27.08%,0.7757%,-4.684%
CC(C)CNC(=O)c1cc(Br)c2c(c1)OCCO2,-,-,6.982%,2.583%
O=C(c1cccc(O)c1)N1CCN(Cc2nnc(C3CCC3)o2)CC1,2.157%,14.75%,-5.367%,-
O=C(c1cccs1)N1CCC2(CC1)CC(Oc1ccccc1)CO2 (stereo unspecified),6.718%,-35.54%,8.545%,11.59%
CN1CC2(CCN(C(=O)Cc3ccccn3)CC2)OCC1=O.O=C(O)C(F)(F)F,-7.233%,-,-,-
CNS(=O)(=O)c1ccccc1N1CCN(C(C)C(N)=O)CC1 (stereo unspecified),1.711%,-29.33%,7.543%,-3.241%
O=C(O)[C@@H]1CN(C(=O)CC2CCCC2)C[C@H]1c1ccc(F)cc1,-3.62%,-11.51%,6.48%,-5.943%
O=C(O)C(F)(F)F.[H][C@]12CN(Cc3csc(C)n3)C(=O)[C@@]1([H])CN(c1ncc(CC)cn1)C2,-9.94%,-,-,-
O=C(O)c1ccccc1-c1ccc(CN2CCC(CO)C2)cn1 (stereo unspecified),16.26%,6.962%,-2.053%,6.796%
O=c1c2ccccc2nnn1CN(CC1CCOC1)C1CC1 (stereo unspecified),-19.95%,-2.981%,3.128%,4.893%
Cc1cccc(C(=O)NCCNCC2CNc3ccnn3C2)c1 (stereo unspecified),5.057%,-10.41%,0.6402%,-23.08%
O=C(c1ccc2c(c1)CCC2)N1CC[C@H](O)[C@]2(CCCO2)C1,-19.45%,-1.556%,3.794%,1.456%
[H][C@@]12CN(C(=O)Cc3cccs3)C[C@]1([H])OCCN2Cc1csc(C)n1,-0.2254%,-,-,-
O=S1(=O)CCC(c2nnc(-c3cnc4onc(C5CCCC5)c4c3)o2)C1 (stereo unspecified),6.208%,-23.73%,-1.656%,-7.656%
O=C(c1ccccn1)N1CCc2ncnc(N3CCOCC3)c2CC1,1.239%,-28.12%,4.711%,0.9772%
COc1ccc(-c2cc(C(=O)NCCC(C)C)n(C)n2)cc1,1.458%,14.01%,1.891%,-36.98%
Cc1cccc(C(C)(C)CNC(=O)CN(C)c2cnccn2)c1,0.8974%,-37.18%,-2.485%,-2.784%
Cc1cccc(CNCC2COC3(CCCCC3)O2)c1C (stereo unspecified),0.9038%,-8.795%,-0.6216%,-1.208%
Cc1cc(CN2CCN(C(=O)NC(C)c3ccc(C)o3)CC2)on1 (stereo unspecified),2.402%,-1.708%,-0.01353%,6.717%
CN(C)C(=O)N1CCC2(CCCN(CCOc3ccccc3)C2)C1.O=C(O)C(F)(F)F (stereo unspecified),-17.17%,-,-,-
CCN(Cc1ccncc1)CC1(O)CCN(C(=O)c2cccc(C)n2)C1 (stereo unspecified),7.2%,-13.39%,-1.129%,6.569%
CC(C)c1ccc(NS(=O)(=O)CC2=NC(=O)n3cccc3C2=O)cc1,5.523%,-25.68%,3.419%,-0.7576%
CC(C)c1nnc2n1CCN(C(C(N)=O)c1ccc(F)cc1)C2 (stereo unspecified),-1.723%,-10.15%,-0.2232%,-21.35%
CS(=O)(=O)NCCN(CCCO)C1CCc2ccccc21 (stereo unspecified),9.555%,-14.76%,0.2139%,3.713%
COCCN1C[C@H]2CC[C@@]3(N=C(C)N(CC4CC4)C3=O)[C@H]2C1,-,-0.4155%,10.59%,-3.934%
Cn1ccnc1CN(CCO)C(=O)C1CCN(C(=O)C2CC2)CC1,-9.638%,-3.463%,4.144%,5.897%
Cc1ccc(S(=O)(=O)N(C)c2ccsc2C(=O)NCC(C)C)cc1,-1.133%,-40.03%,-4.331%,-9.618%
CC(C)CN1CCCn2nc(CNC(=O)CCCc3cn[nH]c3)cc2C1,0.6608%,-14.21%,3.582%,-11.61%
Cc1ccc(NCc2ccccc2C#N)cc1-n1cnnn1,-17.9%,-29.55%,7.641%,-3.297%
CC(C)c1cc(NC(=O)CN2CCc3c(nc(C(C)C)n3C)C2)on1,-1.588%,-11.44%,2.608%,0%
CCS(=O)(=O)N1CCc2cc(C(=O)N(C)C)c(NCC3CC3)nc2CC1,11.73%,-30.51%,1.273%,0.4938%
Cc1ccc2nc(CSCC(=O)Nc3nnc(C(C)C)s3)cc(=O)n2c1,-7.07%,-9.493%,1.576%,-4.084%
Cn1c(C2CC2)nc2cc(NC(=O)C3CC=CC3)ccc21,-3.35%,-24.62%,1.424%,-1.572%
CC(CN1CCC(CCO)CC1)n1cnc2ccccc21 (stereo unspecified),9.864%,-1.905%,2.127%,0.9434%
[H][C@]12CC[C@]([H])(CN(C(=O)CCc3c(C)nn(C)c3C)C1)N(CCOC)C2,-6.066%,-,-,-
Cc1ccc(CCC(=O)N2CCOCC2c2ncon2)c(C)c1 (stereo unspecified),18.03%,-12.79%,-0.6459%,-2.296%
O=C(NCc1ccco1)[C@@H]1CC[C@@H]2[C@@H](CCN2Cc2ccc(F)cc2)O1,-,-,6.765%,7.015%
COCCCN1CCc2cncnc2C1,-,-10.49%,30.45%,-3.599%
CC(C)CC(=O)N1CCCC1c1ccsc1 (stereo unspecified),-12.81%,-13.93%,6.933%,3.571%
O=C(NC1CCN(c2cccc(C(F)(F)F)n2)CC1)C1CC1,-3.35%,-5.28%,2.897%,-2.297%
CCOC(=O)c1coc(N2CCN(Cc3cccc(OC)c3)C(=O)C2)n1,8.207%,-,3.107%,5.405%
Cc1nccn1CCCNc1ccc(Cl)c(C#N)n1,-13.31%,-2.232%,2.718%,7.468%
O=C(c1cc(-n2cnnn2)ccc1Cl)N1CCN(c2ccccc2)CC1,-8.848%,-0.5335%,4.91%,0.8861%
O=C(O)C(F)(F)F.O=C(O)C(F)(F)F.[H][C@@]12OCCN(Cc3ccc(C)o3)[C@@]1([H])CC[C@H]2OCc1cccnc1,8.892%,-,-,-
O=C(O)C(F)(F)F.O=C1COC2(CCN(Cc3ccoc3)CC2)CN1,-2.493%,-,-,-
O=C(c1ccc(O)cc1)N1C[C@@H]2OCCN(c3ncccn3)[C@@H]2C1,-,-11.36%,2.264%,2.343%
O=C(CC1CCCC1)N1CCn2cc(Cn3cccn3)nc2C1,-,-7.089%,1.254%,3%
COCC(=O)NCCc1ccc(Cl)s1,12.61%,-15.13%,3.074%,5.242%
[H][C@]12CC[C@]([H])(CN(c3ncccn3)C1)N(C(=O)Cn1ccnc1CC)C2,0.05013%,-,-,-
CC(C)c1nnc(NC(=O)NCc2cccnc2NCCN(C)C)s1,1.957%,-1.405%,3.68%,-17.07%
CC(=O)N1CCN(C(=O)C(C)OCC(F)(F)F)CC1 (stereo unspecified),18.62%,8.669%,-0.7841%,10.12%
CC(Cc1ccccc1Cl)NC(=O)Nc1cnn(CC(N)=O)c1 (stereo unspecified),0.8283%,-13.15%,3.962%,2.417%
N#Cc1ccnc(N2CCN(CC(O)c3ccc(F)cc3F)CC2)c1 (stereo unspecified),-9.777%,-15.79%,1.542%,-8.876%
Nc1cc(N2CCCC2c2cnccn2)ncn1 (stereo unspecified),3.652%,-45.09%,2.848%,-6.389%

7 of the entries, repeated:

COCC(=O)NCCc1ccc(Cl)s1 gave A: 12.61%; B: -15.13%; C: 3.074%; D: 5.242%.
CC(C)CC(=O)N1CCCC1c1ccsc1 (stereo unspecified) gave A: -12.81%; B: -13.93%; C: 6.933%; D: 3.571%.
Nc1cc(N2CCCC2c2cnccn2)ncn1 (stereo unspecified) gave A: 3.652%; B: -45.09%; C: 2.848%; D: -6.389%.
Cc1ccc(S(=O)(=O)N(C)c2ccsc2C(=O)NCC(C)C)cc1 gave A: -1.133%; B: -40.03%; C: -4.331%; D: -9.618%.
CS(=O)(=O)NCCN(CCCO)C1CCc2ccccc21 (stereo unspecified) gave A: 9.555%; B: -14.76%; C: 0.2139%; D: 3.713%.
COCCCN1CCc2cncnc2C1 gave B: -10.49%; C: 30.45%; D: -3.599%.
O=C(O)C(F)(F)F.O=C(O)C(F)(F)F.[H][C@@]12OCCN(Cc3ccc(C)o3)[C@@]1([H])CC[C@H]2OCc1cccnc1 gave A: 8.892%.

Measurements from “University of Dundee, Small-Polar-MMV Screening Library” (2021), ChEMBL document CHEMBL3988442.